Patent US8828984B2, “Gold(III) complexes containing N-heterocyclic carbene ligand, synthesis, and their applications in cancer treatment and thiol detection” (University of Hong Kong, priority 2012, dated 2014)

Assay: Fluorescent response towards different analysts (thiol probe)

Cn1cc[n+](C)[c]1[Au-]12[n]3c(nc4ccccc43)-c3cccc([n+]31)-c1nc3ccccc3[n]12.O=S(=O)([O-])C(F)(F)F [Complex 9]
Increase in emission intensity upon treatment with GSH or Cys (20 μM complex, 2 mM GSH or Cys, PBS:DMSO=9:1, excitation 340 nm): at least 200 fold
Fluorescence with metal ions or thiol-free amino acids (Na+, K+, Ca2+, Mg2+, Ala, Ser, Pro, Leu, Ile, His, 2 mM, PBS:DMSO=9:1): No fluorescence was found
